The text below walks through data of PubChem BioAssay AID504706 (National Center for Advancing Translational Sciences (NCATS), 2011).

The campaign covered roughly 320,000 compounds. About 200 (0.062%) were called active. Another 6% or so got no clear call; they are omitted. The call rests on the fitted dose curve; in most records, active means well fitted activation curve with a large enough effect; inconclusive means small, poorly fitted or top-dose-only effect; inactive means no such curve, though single readings can be large or run the other way. Only a part is listed here, and it is no random draw. The source gives no active or inactive call for entries shown without one.
Potency means the concentration at half of the fitted maximal effect.

The nature of this experiment: qHTS assay for re-activators of p53 using a Luc reporter. Further: nearly all actives have a fitted effect of over 45% in size. On activity change, positive = activation: % of control where 0% means no effect. The settings on record: H1299 p53-A138V BP100-luciferase reporter, luminescence, 24 h; activity change, positive = activation: at 92.2 µM (top of the series). The method in brief:
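H1299 (p53-null), stable ts p53-A138V + BP100-Luc; 1000 cells/well, Opti-MEM/10% FBS; cpd 4 pt, 1:5; 24 h, 37 deg C, 5% CO2; detection reagent 10 min RT; luminescence.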
Background: Quantitative high-throughput screening tests each substance at several concentrations.
For `CCOC(=O)c1sc2nc(-c3ccccc3)ccc2c1N`, the activity change, positive = activation amounted to 81.5%.
As for `O=C1CN(c2nc(-c3ccccc3)c3cc(Cl)ccc3n2)c2ccccc2N1`, the activity change, positive = activation was 35.6%.
Still for that read-out and setting: for `O=[N+]([O-])c1ccc(NC(=S)NCc2ccc(F)cc2)cc1` the value was inactive: -30.6%; for `Clc1cccc(Nc2ncnc3c2cnn3-c2ccccc2)c1`, inactive: -0.907%; for `O=C(Nn1c(SCc2ccc([N+](=O)[O-])cc2)nc2ccccc2c1=O)c1ccc(F)cc1`, 81%.
Consider `O=C(Cn1cc(SCc2cccc(Cl)c2)c2ccccc21)N1CCOCC1`, for which the Potency is active: 28.2 µM.
Consider `Cc1ccc(-c2nc3n(n2)Cc2ccccc2-3)cc1`, for which the activity change, positive = activation was 40.7%.
`Cc1nn(-c2ccccc2)c(Cl)c1/C=N/Nc1nc2ccccc2[nH]1`: the activity change, positive = activation stood at 66.5%.
As for `COC(=O)c1cn[nH]c1NC(=S)Nc1ccc(C)cc1Cl`, the activity change, positive = activation was determined as 133%.
Turning to `COc1ccc2nc(NCc3ccccc3)[nH]c2c1`, the activity change, positive = activation was 36.1%.
On the same count and under the same terms, the value for `COc1ccc(-c2c(-c3ccc(OC)c(C)c3O)n[nH]c2C)cc1` was inactive: -74.8%; that for `C#CCOC(=O)c1ccccc1C(=O)n1nnc2ccccc21` was inactive: -30.6%.
With `O=C(Nc1ncc2c(n1)CC(c1cccc(Cl)c1)CC2=O)c1ccco1` (stereo unspecified), the “activity change, positive = activation” value was inactive: -30.8%.
Regarding `CN1c2ccccc2C(C)(C)C12C=Cc1cc(O)ccc1O2` (stereo unspecified), the “activity change, positive = activation” value is inactive: 4.25%.
The same measure, in the same setting: for `Cc1ccc(CNc2nc3ccccc3s2)s1` the value was 22.8%.
Consider `O=C(Nc1ncccc1O)c1cc2ccccc2o1`, for which the activity change, positive = activation was determined as 66.4%.
As to `Cc1ccc(S(=O)(=O)N(CC(=O)Nc2cccnc2)c2cccc(Br)c2)cc1`, the “activity change, positive = activation” value was inactive: -34.1%.
For `Cc1nc(NC(=O)c2csc3ccccc23)sc1C`, the activity change, positive = activation stood at 31.7%.
Regarding `O=C(CN1C(=O)NC2(CCCCC2)C1=O)Nc1ccc2c(c1)OCCCO2`, the activity change, positive = activation came to 50.6%.
Still for that read-out and setting: the value for `Cc1nc(SCC(=O)Nn2c(-c3ccccc3)nc3ccccc3c2=O)n[nH]1` was 34.7%.
In the case of `CCOc1ccc(-c2cc(C(=O)NCCCn3ccnc3)c3cc(Br)ccc3n2)cc1`, the “activity change, positive = activation” value was inactive: -33.3%.
The same measure, in the same setting: the value for `CCc1ccc(-c2nc(CN3CCC(C(=O)NCCN(CC)c4ccccc4)CC3)c(C)o2)cc1` was inactive: -56%.
Same read-out and setting: for `O=C(/C=C/Nc1ccccc1)c1ccccc1` the value was 39.2%.
Same read-out and setting: the value for `COc1cc(NC(=O)N2c3ccccc3Sc3ccccc32)c(C(=O)O)cc1OC` was inactive: -40.3%.
With `Cc1cc(C)cc(CC(Cc2nc3ccccc3[nH]2)c2nc3ccccc3[nH]2)c1` (stereo unspecified), the “activity change, positive = activation” value is inactive: -4.15%.
As to `COc1ccccc1OCC(=O)Nc1ccccn1`, the activity change, positive = activation was determined as 12.7%.
`Fc1cccc(NCc2cn3ccccc3n2)c1`: the activity change, positive = activation is -14.3%.
As for `Cc1ccc(O)c(-c2cc(C(=O)Nc3ccc(S(=O)(=O)N4CC(C)OC(C)C4)cc3)[nH]n2)c1` (stereo unspecified), the “activity change, positive = activation” value was inactive: -7.26%.
The same measure, in the same setting: the value for `CC(C)(C)c1ccc(/C=C/C(=O)Nc2nncs2)cc1` was 35.2%; that for `CC(C)c1ccc2oc(-c3cc(N)ccc3O)nc2c1` was 50.2%.
In the case of `CC1=NN(C(N)=S)C(=O)C1N=Nc1ccc(F)cc1` (stereo unspecified), the Potency was active: 25.1 µM.
With `O=C(Cc1sc(Nc2ccccc2)nc1-c1ccccc1)NCc1ccccc1`, the Potency is active: 39.8 µM.
For `Clc1ccc(-c2nnc(N3CCCC3)nn2)cc1`, the activity change, positive = activation stood at 44.9%.
For `Oc1ccccc1-c1cc(-c2ccccc2)no1`, the activity change, positive = activation was found to be 43.8%.
On the same count and under the same terms, the value for `O=C1c2ccccc2C(=O)C1c1ccnc2ccccc12` was 76.3%.
As to `[O-][N+]1=c2ccc(Nc3ccccc3)cc2=NC12CCCCC2`, the “activity change, positive = activation” value is inactive: -33.7%.
On to `CN(C)c1ccc(C=Nc2ccc(N(C)C)cc2)cc1`, for which the Potency was active: 39.8 µM.
With `O=C(/C=C/c1ccc(NC(=O)c2ccccc2-c2ccccc2C(=O)O)cc1)c1ccccc1`, the “activity change, positive = activation” value was inactive: -51.5%.
Still for that read-out and setting: the value for `O=C(O)CCC(=O)Nc1ccc(-n2ccc(C(F)(F)F)n2)cc1` was 20.8%; that for `Cc1cnc(NC(=O)c2cc3c(s2)CCCC3)s1` was 24.6%.
Still for that read-out and setting: for `Cc1ccc2nc(-c3ccc(NC(=O)COC(=O)c4ccc(Br)o4)cc3)sc2c1` the value was 134%; for `COc1ccc(-c2nc3ccc([N+](=O)[O-])cc3[nH]2)cc1`, 128%; for `CCCOc1ccc(-c2nnc(-c3cccs3)o2)cc1`, 64.5%.
On the same count and under the same terms, the value for `COC(=O)CSc1nc2cc(C)ccc2cc1C#N` was 210%; that for `COc1ccc(C(=O)Nc2ccc3c(c2)OCCO3)cc1` was 41%.
In the case of `CCN(CC)c1ccc(NC2=C(Cl)C(=O)c3ccccc3C2=O)cc1`, the “activity change, positive = activation” value was inactive: -36.1%.
In the case of `Cc1cc(C)nc(SCc2ccc(C(=O)NNC(=O)Nc3cccc(Cl)c3)cc2)n1`, the “activity change, positive = activation” value was inactive: -32.3%.
On the same count and under the same terms, the value for `COc1ccccc1NC(=O)c1sc(Cl)nc1C` was inactive: -62.4%; that for `CC1=NN(C(N)=S)C(=O)C1N=Nc1ccc(Cl)cc1` (stereo unspecified) was 48.6%.
Consider `c1ccc2c(c1)Cc1cc3ccccc3nc1-2`, for which the activity change, positive = activation came to 35.7%.
Turning to `CCCCOC(=O)Nc1ccc2c(C)cc(=O)oc2c1`, the activity change, positive = activation came to 37.4%.
Regarding `COc1ccc(-c2csc(NC(=O)c3ccccc3NS(=O)(=O)c3ccc(C)cc3)n2)cc1`, the activity change, positive = activation came out at 40.1%.
In the case of `Cc1cc(C)c2nc(NC(=O)c3ccco3)sc2c1`, the activity change, positive = activation amounted to 54.2%.
As for `Cc1ccc2nc(SCn3nnc4ccccc4c3=O)[nH]c2c1`, the activity change, positive = activation is 94.4%.
For `CN(c1ccc(C(=O)COC(=O)C2CC2)cc1)S(C)(=O)=O`, the Potency was active: 35.5 µM.
As for `COc1ccc(N(C(=O)c2ccco2)C(C(=O)NC2CCCC2)c2cc(OC)c(OC)c(OC)c2)cc1` (stereo unspecified), the activity change, positive = activation was 42.3%.
